Results are given in words; binding and its absence hold for the method and conditions named. In cells and extracts the contact can be indirect. Here binding means that the protein was enriched with, or labelled near, the bait; the list need not be complete. For some assays here: A no says only that the protein was not detected with the bait.

Chains of the proteins cited; added tags and fusions are not shown. Residues count along the entry.
UniProt P27695: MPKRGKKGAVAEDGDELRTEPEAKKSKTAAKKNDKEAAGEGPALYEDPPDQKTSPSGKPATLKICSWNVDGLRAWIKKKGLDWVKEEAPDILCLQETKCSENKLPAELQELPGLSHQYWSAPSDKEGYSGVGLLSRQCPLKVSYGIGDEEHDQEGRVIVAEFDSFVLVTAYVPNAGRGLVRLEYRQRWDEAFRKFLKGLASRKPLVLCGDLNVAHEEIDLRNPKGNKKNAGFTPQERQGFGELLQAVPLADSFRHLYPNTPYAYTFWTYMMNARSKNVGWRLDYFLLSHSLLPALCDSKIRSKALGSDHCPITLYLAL
UniProt P02545, residues 1-646: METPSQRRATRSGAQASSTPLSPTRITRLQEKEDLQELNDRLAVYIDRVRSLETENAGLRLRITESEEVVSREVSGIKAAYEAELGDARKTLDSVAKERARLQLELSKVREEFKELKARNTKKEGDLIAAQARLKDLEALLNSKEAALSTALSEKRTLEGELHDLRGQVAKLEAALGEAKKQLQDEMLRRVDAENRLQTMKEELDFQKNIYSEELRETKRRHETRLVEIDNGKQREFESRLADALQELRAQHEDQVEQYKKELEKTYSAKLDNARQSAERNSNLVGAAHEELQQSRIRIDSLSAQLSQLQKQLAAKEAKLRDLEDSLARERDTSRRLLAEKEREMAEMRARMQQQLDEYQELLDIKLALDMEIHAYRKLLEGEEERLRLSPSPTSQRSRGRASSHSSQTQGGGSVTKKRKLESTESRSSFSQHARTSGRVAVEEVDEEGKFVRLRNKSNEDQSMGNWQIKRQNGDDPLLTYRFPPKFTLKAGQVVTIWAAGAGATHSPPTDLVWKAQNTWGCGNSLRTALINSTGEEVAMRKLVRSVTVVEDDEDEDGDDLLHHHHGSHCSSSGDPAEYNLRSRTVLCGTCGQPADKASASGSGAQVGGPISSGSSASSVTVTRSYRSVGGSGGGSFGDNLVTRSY
UniProt P06748: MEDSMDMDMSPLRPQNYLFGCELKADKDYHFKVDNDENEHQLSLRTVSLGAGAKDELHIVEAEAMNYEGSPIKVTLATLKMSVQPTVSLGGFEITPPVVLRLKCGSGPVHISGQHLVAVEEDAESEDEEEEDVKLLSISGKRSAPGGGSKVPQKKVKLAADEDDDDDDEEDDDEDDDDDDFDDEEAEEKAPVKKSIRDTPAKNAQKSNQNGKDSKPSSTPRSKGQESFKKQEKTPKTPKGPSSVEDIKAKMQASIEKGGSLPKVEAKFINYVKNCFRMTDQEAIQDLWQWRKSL

Among the data in article PMC4937415, “Peroxiredoxin 1 interacts with and blocks the redox factor APE1 from activating interleukin-8 expression” (Scientific Reports, 2016) are binding values, retold here.

For test [1], the target named is FH-APE1 (N-terminal FLAG-HA tagged APE1) (human) (UniProt P27695). Briefly: affinity purification with mass spectrometry; tandem affinity purification of FH-APE1 from nuclear extract of HeLaS cells treated with 100 μM H2O2 for 1 h.
The target is the same in test [2]. Briefly: affinity purification with mass spectrometry; tandem anti-FLAG then anti-HA resins from nuclear extract of HeLaS cells expressing FH-APE1 (untreated or 25 μM H2O2 for 1 h); whole HA eluate to mass spectrometry; hit limit three unique peptides; empty vector pOZ as control.
Test [3] has the same target. Briefly: condition: only cells treated with 100 μM H2O2 for 1 h; affinity purification with mass spectrometry; tandem affinity purification of FH-APE1 from nuclear extract of HeLaS cells treated with 100 μM H2O2 for 1 h.
Test [4] shares this target. Briefly: affinity purification with mass spectrometry; tandem anti-FLAG then anti-HA resins from the cytosolic fraction of HeLaS cells expressing FH-APE1 (untreated or 25 μM H2O2 for 1 h); whole HA eluate to mass spectrometry.

With LMNA (from UniProt P02545 1-646), the binding entry in test [1] and in test [2] was “binds” in each case.

Turning to NPM1 (from UniProt P06748 1-294), the results for the binding result in test [3] and in test [2] were “no binding” and “binds”, respectively.

B1: PRDX3 (protein, UniProt P30048 62-256)
chain: APAVTQHAPYFKGTAVVNGEFKDLSLDDFKGKYLVLFFYPLDFTFVCPTEIVAFSDKANEFHDVNCEVVAVSVDSHFSHLAWINTPRKNGGLGHMNIALLSDLTKQISRDYGVLLEGSGLALRGLFIIDPNGVIKHLSVNDLPVGRSVEETLRLVKAFQYVETHGEVCPANWTPDSPTIKPSPAASKEYFQKVNQ
As for B1, the binding entry in test [4] is on record as “binds”.

B2: Peroxiredoxin 1 (PRDX1) (natural protein, human (endogenous in HeLaS and HeLa), UniProt Q06830 1-199, looked up)
chain: MSSGNAKIGHPAPNFKATAVMPDGQFKDISLSDYKGKYVVFFFYPLDFTFVCPTEIIAFSDRAEEFKKLNCQVIGASVDSHFCHLAWVNTPKKQGGLGPMNIPLVSDPKRTIAQDYGVLKADEGISFRGLFIIDDKGILRQITVNDLPVGRSVDETLRLVQAFQFTDKHGEVCPAGWKPGSDTIKPDVQKSKEYFSKQK
notes: endogenous PRDX1 of HeLaS and HeLa cells; monomer 22 kDa, dimeric form 44 kDa on blots; source: endogenous, HeLaS nuclear, cytosolic and total extracts; endogenous, HeLa nuclear extract
Regarding B2, the binding entry in test [4] is given as “binds”; in test [3], “no binding”; in test [2], “binds”.

B3: PRDX2 (protein, UniProt P32119 1-198)
chain: MASGNARIGKPAPDFKATAVVDGAFKEVKLSDYKGKYVVLFFYPLDFTFVCPTEIIAFSNRAEDFRKLGCEVLGVSVDSQFTHLAWINTPRKEGGLGPLNIPLLADVTRRLSEDYGVLKTDEGIAYRGLFIIDGKGVLRQITVNDLPVGRSVDEALRLVQAFQYTDEHGEVCPAGWKPGSDTIKPNVDDSKEYFSKHN
Take B3: the binding result in test [4] is on record as “binds”.

B4: PDIA6 (protein, UniProt Q15084 20-440)
chain: LYSSSDDVIELTPSNFNREVIQSDSLWLVEFYAPWCGHCQRLTPEWKKAATALKDVVKVGAVDADKHHSLGGQYGVQGFPTIKIFGSNKNRPEDYQGGRTGEAIVDAALSALRQLVKDRLGGRSGGYSSGKQGRSDSSSKKDVIELTDDSFDKNVLDSEDVWMVEFYAPWCGHCKNLEPEWAAAASEVKEQTKGKVKLAAVDATVNQVLASRYGIRGFPTIKIFQKGESPVDYDGGRTRSDIVSRALDLFSDNAPPPELLEIINEDIAKRTCEEHQLCVVAVLPHILDTGAAGRNSYLEVLLKLADKYKKKMWGWLWTEAGAQSELETALGIGGFGYPAMAAINARKMKFALLKGSFSEQGINEFLRELSFGRGSTAPVGGGAFPTIVEREPWDGRDGELPVEDDIDLSDVELDDLGKDEL
B4: in test [4], the binding result was “binds”.

B5: PRDX6 (protein, UniProt P30041 1-224)
chain: MPGGLLLGDVAPNFEANTTVGRIRFHDFLGDSWGILFSHPRDFTPVCTTELGRAAKLAPEFAKRNVKLIALSIDSVEDHLAWSKDINAYNCEEPTEKLPFPIIDDRNRELAILLGMLDPAEKDEKGMPVTARVVFVFGPDKKLKLSILYPATTGRNFDEILRVVISLQLTAEKRVATPVDWKDGDSVMVLPTIPEEEAKKLFPKGVFTKELPSGKKYLRYTPQP
As to B5, the binding result in test [4] is listed as “binds”.
